Among the data in publication PMC8877285 are binding values, retold here.

No constants are given. Whether binding was seen depends on the method and setting. In cells and extracts the contact can be indirect. These calls come from enrichment with a bait or labelling near it, and not all partners need be listed. Tags and fused reporters may be left off the sequences shown.

This experiment concerns the target T1, flavin-containing monooxygenase 3 (FMO3) (mouse (endogenous in mouse liver)) (UniProt P97501).
T1 sequence: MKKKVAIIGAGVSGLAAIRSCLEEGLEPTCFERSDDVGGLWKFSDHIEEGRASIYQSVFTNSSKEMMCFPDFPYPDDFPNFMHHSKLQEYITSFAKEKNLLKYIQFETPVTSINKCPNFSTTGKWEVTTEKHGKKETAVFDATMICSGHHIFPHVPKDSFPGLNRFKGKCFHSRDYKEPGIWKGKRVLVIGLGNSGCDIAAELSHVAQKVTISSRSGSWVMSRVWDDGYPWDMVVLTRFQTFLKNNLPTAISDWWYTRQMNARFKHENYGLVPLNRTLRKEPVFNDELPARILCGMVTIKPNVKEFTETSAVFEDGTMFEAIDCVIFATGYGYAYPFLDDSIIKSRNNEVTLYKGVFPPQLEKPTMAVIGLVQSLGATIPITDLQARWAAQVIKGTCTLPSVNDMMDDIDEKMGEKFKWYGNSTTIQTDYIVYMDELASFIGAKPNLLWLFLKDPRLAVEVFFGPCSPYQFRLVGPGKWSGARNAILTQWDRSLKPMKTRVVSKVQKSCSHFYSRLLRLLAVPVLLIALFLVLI
Briefly: affinity purification with mass spectrometry; mouse liver extracts (vehicle or PCB-126-treated mice) in TBS (25 mM Tris pH 7.4, 150 mM NaCl, 1% NP-40, 5% glycerol, protease inhibitors), immunoprecipitated overnight at 4 °C with anti-FMO3 (Abnova) on protein A/G agarose; normal IgG IP as control; LC-MS/MS of the tryptic digest.

B1: GOLGA3 (protein, UniProt P55937 1-1487)
chain: MDGASAKQDGLWESKSSSDVSSCPEASLETVGSLARLPDQQDTAQDASVEVNRGFKEEGSPDRSSQVAICQNGQIPDLQLSLDPTTSPVGPDASTGVDGFHDNLRNSQGTSAEGSVRKEALQSLRLSLPMQETQLCSTASSLPLEKEEQVRLQARKRLEEQLMQYRVKRHRERSSQPATKMKLFSTLDPELMLNPENLPRASTVAVTKEYSFLRTSVPRGPKVGSLGLLAHSKEKKNSKSSKIRSLADYRTEDPSDSGGLGSTADAVGSSLKQSRSSTSVVSEVSPSSETDNRVESASMTGDSVSEADGNESDSSSHSSLSARGACGVLGNVGMPGTAYMVDGQEISAEALGQFPSIKDVLQAAAAQHQDQNQEANGEVRSRRDSICSSVSMESSLAEPQDELLQILKDKRRLEGQVEALSLEASQALQEKAELQAQLAALSTRLQAQVEHSHSSQQKQDSLSSEVDTLKQSCWDLGRAMTDLQSMLEAKNASLASSNNDLQVAEEQYQRLMAKVEDMQRNILSKDNTVHDLRQQMTALQSQLQQVQLERTTLTSKLQASQAEITSLQHARQWYQQQLTLAQEARVRLQGEMAHIQVGQMTQAGLLEHLKLENVSLSHQLTETQHRSIKEKERIAVQLQSIEADMLDQEAAFVQIREAKTMVEEDLQRRLEEFEGEREQLQKVADAAASLEQQLEQVKLTLFQRDQQLAALQQEHLDVIKQLTSTQEALQAKGQSLDDLHTRYDELQARLEELQREADSREDAIHFLQNEKIVLEVALQSAKSDKEELDRGARRLEEDTEETSGLLEQLRQDLAVKSNQVEHLQQETATLRKQMQKVKEQFVQQKVMVEAYRRDATSKDQLINELKATKKRLDSEMKELRQELIKLQGEKKTVEVEHSRLQKDMSLVHQQMAELEGHLQSVQKERDEMEIHLQSLKFDKEQMIALTEANETLKKQIEELQQEAKKAITEQKQKMKRLGSDLTSAQKEMKTKHKAYENAVSILSRRLQEALASKEATDAELNQLRAQSTGGSSDPVLHEKIRALEVELQNVGQSKILLEKELQEVITMTSQELEESREKVLELEDELQESRGFRRKIKRLEESNKKLALELEHERGKLTGLGQSNAALREHNSILETALAKREADLVQLNLQVQAVLQRKEEEDRQMKQLVQALQVSLEKEKMEVNSLKEQMAAARIEAGHNRRHFKAATLELSEVKKELQAKEHLVQTLQAEVDELQIQDGKHSQEIAQFQTELAEARTQLQLLQKKLDEQMSQQPTGSQEMEDLKWELDQKEREIQSLKQQLDLTEQQGKKELEGTQQTLQTIKSELEMVQEDLSETQKDKFMLQAKVSELKNNMKTLLQQNQQLKLDLRRGAAKKKEPKGESNSSSPATPIKIPDCPVPASLLEELLRPPPAVSKEPLKNLNNCLQQLKQEMDSLQRQMEEHTITVHESLSSWAQVEAAPAEHAHPRGDTKLHNQNSVPRDGLGQ
For the molecule B1, the binding entry is on record as “binds”.

B2: GOLGA1 (protein, UniProt Q9CW79 1-758)
chain: MFAKLKKKIAEETAVAQRPGGTTRIPRSVSKESVASMGADSGDDFASDGSSSREDLSSQLLRRNEQIRKLEARLSDYAEQVRNLQKIKEKLEIALEKHQDSSMRKFQEQNETFQASRAKMAEGLALALARKDQEWSEKMEQLEKDKRFLTSQLQEVKNQSLSLFQKRDEIDELEGFQQQEISKVKHMLLKKEECLGKMEQELDARTRELNRTQEELVTSNQLSSDLNERLEELQRHCSTLEEQRDHLTASKAGAEHKIVVLEQKEQELQAIIQQHSIDLQKVTAETQEKEKVITHLQEKVIFLEKRLEQNLSGEDHVQELLKEKTVAEQNLEDTRQQLLAARNSHTKALYLLETRVKDLERSLQAAEEQLSQSRNVVADQEAQIQKLITTNQENSLSQQQVLALEQHCRERIHALEAQIEALEQTRVADQIASEQGMLQLQQENVALKESRNECEHSLQHHQLELKKLKDEWSQREIVSVAMAQALEEVRKQREEFQQQATELTAIIEEKNQSLCEKDEALLQKEQELRQLEKGHSSALLQMHKLQRELEALKTCKAQEAMPATTGEDCLPLQGQEPLVISKAMQNSEYELPAAEGTPNGEVGASDLKQLQKEKQDLEQQLIEKNKIMKQMQQRMLELKKTLQKELKIRPDSELFEVREKTGPEIPNMAPSVTNNTDLTDAREINFEYLKHVVLKFMSCRESEAFHLIKAVSVLLNFSQEEENMLKETLEYKMSWFGSKPTPKGSIRPSISNPRIPWS
Consider B2, for which the binding result was “binds”.

B3: GNMT (protein, UniProt Q9QXF8 1-293)
chain: MVDSVYRTRSLGVAAEGLPDQYADGEAARVWQLYIGDTRSRTAEYKAWLLGLLRQHGCHRVLDVACGTGVDSIMLVEEGFSVMSVDASDKMLKYALKERWNRRKEPSFDNWVIEEANWLTLDKDVLSGDGFDAVICLGNSFAHLPDCKGDQSEHRLALKNIASMVRPGGLLVIDHRNYDYILSTGCAPPGKNIYYKSDLTKDITTSVLTVNNKAHMVTLDYTVQVPGTGRDGSPGFSKFRLSYYPHCLASFTELVRAAFGGRCQHSVLGDFKPYKPGQAYVPCYFIHVLKKTD
As for B3, the binding result is reported as “binds”.

B4: OGDH (protein, UniProt Q60597 41-1023)
chain: SAPVAAEPFLSGTSSNYVEEMYCAWLENPKSVHKSWDIFFRNTNAGAPPGTAYQSPLSLSRSSLATMAHAQSLVEAQPNVDKLVEDHLAVQSLIRAYQIRGHHVAQLDPLGILDADLDSSVPADIISSTDKLGFYGLHESDLDKVFHLPTTTFIGGQEPALPLREIIRRLEMAYCQHIGVEFMFINDLEQCQWIRQKFETPGIMQFTNEEKRTLLARLVRSTRFEEFLQRKWSSEKRFGLEGCEVLIPALKTIIDMSSANGVDYVIMGMPHRGRLNVLANVIRKELEQIFCQFDSKLEAADEGSGDMKYHLGMYHRRINRVTDRNITLSLVANPSHLEAADPVVMGKTKAEQFYCGDTEGKKVMSILLHGDAAFAGQGIVYETFHLSDLPSYTTHGTVHVVVNNQIGFTTDPRMARSSPYPTDVARVVNAPIFHVNSDDPEAVMYVCKVAAEWRNTFHKDVVVDLVCYRRNGHNEMDEPMFTQPLMYKQIRKQKPVLQKYAELLVSQGVVNQPEYEEEISKYDKICEEAFTRSKDEKILHIKHWLDSPWPGFFTLDGQPRSMTCPSTGLEEDVLFHIGKVASSVPVENFTIHGGLSRILKTRRELVTNRTVDWALAEYMAFGSLLKEGIHVRLSGQDVERGTFSHRHHVLHDQNVDKRTCIPMNHLWPNQAPYTVCNSSLSEYGVLGFELGFAMASPNALVLWEAQFGDFNNMAQCIIDQFICPGQAKWVRQNGIVLLLPHGMEGMGPEHSSARPERFLQMCNDDPDVLPDLQEENFDINQLYDCNWIVVNCSTPGNFFHVLRRQILLPFRKPLIVFTPKSLLRHPEARTSFDEMLPGTHFQRVIPENGPAAQDPHKVKRLLFCTGKVYYDLTRERKARNMEEEVAITRIEQLSPFPFDLLLKEAQKYPNAELAWCQEEHKNQGYYDYVKPRLRTTIDRAKPVWYAGRDPAAAPATGNKKTHLTELQRFLDTAFDLDAFKKFS
With B4, the binding entry was “binds”.

B5: arginase (ARG) (protein, UniProt Q61176 1-323)
chain: MSSKPKSLEIIGAPFSKGQPRGGVEKGPAALRKAGLLEKLKETEYDVRDHGDLAFVDVPNDSSFQIVKNPRSVGKANEELAGVVAEVQKNGRVSVVLGGDHSLAVGSISGHARVHPDLCVIWVDAHTDINTPLTTSSGNLHGQPVSFLLKELKGKFPDVPGFSWVTPCISAKDIVYIGLRDVDPGEHYIIKTLGIKYFSMTEVDKLGIGKVMEETFSYLLGRKKRPIHLSFDVDGLDPAFTPATGTPVLGGLSYREGLYITEEIYKTGLLSGLDIMEVNPTLGKTAEEVKSTVNTAVALTLACFGTQREGNHKPGTDYLKPPK
In the case of B5, the binding entry was “binds”.

B6: GSTZ1 (protein, UniProt Q9WVL0 1-216)
chain: MQAGKPILYSYFRSSCSWRVRIALALKGIDYEIVPINLIKDGGQQFTEEFQTLNPMKQVPALKIDGITIVQSLAIMEYLEETRPIPRLLPQDPQKRAIVRMISDLIASGIQPLQNLSVLKQVGQENQMQWAQKVITSGFNALEKILQSTAGKYCVGDEVSMADVCLVPQVANAERFKVDLSPYPTISHINKELLALEVFQVSHPRRQPDTPAELRT
For B6, the binding result is recorded as “binds”.

B7: HINT1 (protein, UniProt P70349 1-126)
chain: MADEIAKAQVAQPGGDTIFGKIIRKEIPAKIIFEDDRCLAFHDISPQAPTHFLVIPKKHISQISVADDDDESLLGHLMIVGKKCAADLGLKRGYRMVVNEGADGGQSVYHIHLHVLGGRQMNWPPG
As to B7, the binding result is on record as “binds”.

B8: FTCD (protein, UniProt Q91XD4 1-541)
chain: MSQLVECVPNFSEGNNQEVIDAISRAISQTPGCVLLDVDAGPSTNRTVYTFVGQPECVVEGALHAARTASQLIDMSKHKGEHPRMGALDVCPFIPVRGVSMEECVLCAKAFGQRLAEELNVPVYLYGEAAQTPSRQTLPAIRAGEYEALPEKLKQAEWVPDFGPSSFVPSWGATVTGARKFLIAFNINLLSTKEQAHRIALNLREQGRGKDQPGRLKKVQGIGWYLEEKNLAQVSTNLLDFEVTALHTVFEEARREAQELNLPVVGSQLVGLVPLKALLDAAAFYCDKEKLFVLEEEHRIRLVVNRLGLDSLAPFDPKERIIEYLVPDSGPEQSLLDTSLRGFVREVGARSAAPGGGSVAAAVAALGAALASMVGQMTYGRRQFDHLDSTMRRLIPPFHAASAQLTSLVDADARAFAACLEAIKLPKNTPEERDRRACALQEGLRQAVAVPLKLAETVSQLWPALQELAHCGNLSCLSDLQVAAKALETGVFGAYFNVLINLKDMTDDVFKEKTHHRISSLLQEAKTQAALVLGSLEARKE
B8: the binding entry is listed as “binds”.

B9: ACAA2 (protein, UniProt Q8BWT1 1-397)
chain: MALLRGVFIVAAKRTPFGAYGGLLKDFSATDLTEFAARAALSAGKVPPETIDSVIVGNVMQSSSDAAYLARHVGLRVGVPTETGALTLNRLCGSGFQSIVSGCQEICSKDAEVVLCGGTESMSQSPYCVRNVRFGTKFGLDLKLEDTLWAGLTDQHVKLPMGMTAENLAAKYNISREDCDRYALQSQQRWKAANEAGYFNEEMAPIEVKTKKGKQTMQVDEHARPQTTLEQLQKLPSVFKKDGTVTAGNASGVSDGAGAVIIASEDAVKKHNFTPLARVVGYFVSGCDPTIMGIGPVPAINGALKKAGLSLKDMDLIDVNEAFAPQFLSVQKALDLDPSKTNVSGGAIALGHPLGGSGSRITAHLVHELRRRGGKYAVGSACIGGGQGIALIIQNTA
As for B9, the binding entry is “binds”.
